Results are given in words; binding and its absence hold for the method and conditions named. Some binding calls cover weakened binding; strength is not graded here.
What was measured:
[1] = target: Recombinant human HGF R/c-Met Fc chimera (R&D systems, cat no. 358-MT/CF) (human) (UniProt P08581); assay: SPR (BIAcore), c-Met immobilized on chip, antibody flowed
[2] = target: T1, mouse c-Met-Fc (mouse, UniProt P16056 25-931, limits assumed); assay: as above
T1 construct: Bought reagent (R&D system); also called mouse-c-Met (R&D system); not shown: Fc part

Protein sequences, listed by entry. Tags and fused reporters are not part of them. Residues count along the entry.
UniProt P16056, residues 25-931: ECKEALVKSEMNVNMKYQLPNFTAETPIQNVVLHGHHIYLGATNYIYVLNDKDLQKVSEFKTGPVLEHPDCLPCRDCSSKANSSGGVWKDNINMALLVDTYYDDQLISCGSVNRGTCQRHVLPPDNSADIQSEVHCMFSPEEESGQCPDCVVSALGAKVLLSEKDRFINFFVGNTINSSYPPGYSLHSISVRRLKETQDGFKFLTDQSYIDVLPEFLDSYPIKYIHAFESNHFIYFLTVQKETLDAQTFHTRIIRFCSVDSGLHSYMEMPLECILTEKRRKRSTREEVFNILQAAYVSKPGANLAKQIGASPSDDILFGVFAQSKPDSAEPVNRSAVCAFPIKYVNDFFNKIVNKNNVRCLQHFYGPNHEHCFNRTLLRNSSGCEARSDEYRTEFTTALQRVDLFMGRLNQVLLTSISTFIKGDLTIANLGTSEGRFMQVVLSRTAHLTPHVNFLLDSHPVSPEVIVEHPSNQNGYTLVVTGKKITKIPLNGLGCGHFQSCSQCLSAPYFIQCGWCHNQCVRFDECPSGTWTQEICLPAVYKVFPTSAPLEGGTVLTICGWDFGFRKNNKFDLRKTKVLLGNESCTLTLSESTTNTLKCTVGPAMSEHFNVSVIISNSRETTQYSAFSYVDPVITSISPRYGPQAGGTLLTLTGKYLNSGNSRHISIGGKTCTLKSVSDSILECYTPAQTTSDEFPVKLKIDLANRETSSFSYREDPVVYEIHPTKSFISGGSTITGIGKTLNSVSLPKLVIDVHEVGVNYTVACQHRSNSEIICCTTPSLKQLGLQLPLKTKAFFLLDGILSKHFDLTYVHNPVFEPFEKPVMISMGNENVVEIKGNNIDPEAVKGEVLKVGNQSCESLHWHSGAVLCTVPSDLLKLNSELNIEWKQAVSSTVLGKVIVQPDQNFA

[3] = target: Recombinant human HGF R/c-Met Fc chimera (R&D systems, cat no. 358-MT/CF) (human) (UniProt P08581); assay: SPR (BIAcore), human-c-Met immobilized on chip, antibody flowed
[4] = target: T1, mouse c-Met-Fc; assay: SPR (BIAcore), mouse-c-Met immobilized on chip, antibody flowed

binding [1]: binds | binding [2]: binds | binding [3]: binds | binding [4]: binds
B1: 1E4-IgG (antibody, V domains shown)
VH: QVQLVQSGAEVKKPGESLRISCQGSGYSFPTHWITWVRQMPGKGLEWMGTIDPTDSYNFYGPSFQGHVTISADSSSSTAYLQWSSLKASDTAMYYCARDGNYYDSRGYYYDTFDMWGQGTLVTVSS
VL: DIQMTQSPSFLSASVGDRVTITCRASQGISTYLAWYQQKPGTAPKLLIYSASTLESGVPSRFSGSGSGTDFTLTISSLQPEDSATYYCQQADSFPLTFGGGTKVEIKR
notes: also called 1E4 antibody; anti-c-Met IgG (1E4-IgG)

Reference: US20170233492A1 (PHARMABCINE, published 2017)
